Measurements as given in the supplement of paper PMC10849652.
Some of the results follow.

The chains behind the UniProt entries cited, without tags or fusion partners. Where a name states a change or a piece, a line headed by the entry shows the natural chain unless it says otherwise.
UniProt Q9Y262, whole entry, looked up: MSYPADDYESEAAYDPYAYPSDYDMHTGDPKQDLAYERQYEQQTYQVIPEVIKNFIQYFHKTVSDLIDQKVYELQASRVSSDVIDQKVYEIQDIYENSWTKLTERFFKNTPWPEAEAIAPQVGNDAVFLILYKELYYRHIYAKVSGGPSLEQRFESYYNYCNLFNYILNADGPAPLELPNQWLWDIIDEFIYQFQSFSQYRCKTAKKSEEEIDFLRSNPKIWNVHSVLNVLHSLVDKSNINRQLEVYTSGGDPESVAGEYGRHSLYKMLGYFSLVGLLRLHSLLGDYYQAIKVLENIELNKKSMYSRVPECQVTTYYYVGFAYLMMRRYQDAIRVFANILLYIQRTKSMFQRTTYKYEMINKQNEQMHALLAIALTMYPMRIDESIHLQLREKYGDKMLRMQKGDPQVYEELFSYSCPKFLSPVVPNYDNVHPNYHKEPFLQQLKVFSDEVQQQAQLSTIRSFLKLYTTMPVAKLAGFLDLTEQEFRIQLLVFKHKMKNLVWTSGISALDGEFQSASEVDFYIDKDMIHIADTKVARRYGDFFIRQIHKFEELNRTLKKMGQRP
UniProt Q15723: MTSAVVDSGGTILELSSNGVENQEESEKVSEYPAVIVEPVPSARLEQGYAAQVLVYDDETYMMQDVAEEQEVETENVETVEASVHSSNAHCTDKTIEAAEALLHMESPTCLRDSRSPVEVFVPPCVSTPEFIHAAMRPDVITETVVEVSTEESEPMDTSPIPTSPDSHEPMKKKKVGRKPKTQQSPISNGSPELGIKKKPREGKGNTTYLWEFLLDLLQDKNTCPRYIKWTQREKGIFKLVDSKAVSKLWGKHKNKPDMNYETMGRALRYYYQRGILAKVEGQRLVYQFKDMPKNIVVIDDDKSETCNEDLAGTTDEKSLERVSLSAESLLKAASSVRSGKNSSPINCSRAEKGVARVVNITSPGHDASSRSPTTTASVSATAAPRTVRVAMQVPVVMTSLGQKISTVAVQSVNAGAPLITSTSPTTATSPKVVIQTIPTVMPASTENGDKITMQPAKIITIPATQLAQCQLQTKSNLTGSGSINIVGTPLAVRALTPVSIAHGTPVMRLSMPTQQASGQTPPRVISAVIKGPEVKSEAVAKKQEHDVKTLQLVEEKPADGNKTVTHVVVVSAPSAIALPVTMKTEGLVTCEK
UniProt P60228, whole entry, looked up: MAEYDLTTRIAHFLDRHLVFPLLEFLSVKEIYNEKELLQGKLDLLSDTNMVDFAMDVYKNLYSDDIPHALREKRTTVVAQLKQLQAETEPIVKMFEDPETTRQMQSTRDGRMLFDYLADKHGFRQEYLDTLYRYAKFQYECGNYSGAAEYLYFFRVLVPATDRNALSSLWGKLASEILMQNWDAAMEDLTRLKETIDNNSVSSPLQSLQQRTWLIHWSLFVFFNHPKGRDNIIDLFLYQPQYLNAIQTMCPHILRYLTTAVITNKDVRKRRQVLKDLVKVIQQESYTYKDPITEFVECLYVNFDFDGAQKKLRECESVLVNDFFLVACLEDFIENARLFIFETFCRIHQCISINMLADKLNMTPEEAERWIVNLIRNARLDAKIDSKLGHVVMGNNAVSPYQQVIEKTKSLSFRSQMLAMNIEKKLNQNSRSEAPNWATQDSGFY
UniProt O15372, whole entry, looked up: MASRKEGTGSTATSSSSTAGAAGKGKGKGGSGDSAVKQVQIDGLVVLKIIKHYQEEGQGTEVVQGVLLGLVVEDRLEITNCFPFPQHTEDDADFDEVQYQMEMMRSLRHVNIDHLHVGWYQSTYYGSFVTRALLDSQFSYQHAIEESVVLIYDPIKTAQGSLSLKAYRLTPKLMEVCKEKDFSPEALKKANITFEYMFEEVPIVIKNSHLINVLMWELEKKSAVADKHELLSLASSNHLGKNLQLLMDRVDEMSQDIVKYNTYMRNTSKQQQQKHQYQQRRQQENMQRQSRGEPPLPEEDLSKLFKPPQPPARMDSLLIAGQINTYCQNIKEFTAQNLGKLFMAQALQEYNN
UniProt P84090, whole entry, looked up: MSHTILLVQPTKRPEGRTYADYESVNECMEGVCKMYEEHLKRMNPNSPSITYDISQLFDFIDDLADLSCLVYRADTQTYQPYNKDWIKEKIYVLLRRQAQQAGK
UniProt O75821, whole entry, looked up: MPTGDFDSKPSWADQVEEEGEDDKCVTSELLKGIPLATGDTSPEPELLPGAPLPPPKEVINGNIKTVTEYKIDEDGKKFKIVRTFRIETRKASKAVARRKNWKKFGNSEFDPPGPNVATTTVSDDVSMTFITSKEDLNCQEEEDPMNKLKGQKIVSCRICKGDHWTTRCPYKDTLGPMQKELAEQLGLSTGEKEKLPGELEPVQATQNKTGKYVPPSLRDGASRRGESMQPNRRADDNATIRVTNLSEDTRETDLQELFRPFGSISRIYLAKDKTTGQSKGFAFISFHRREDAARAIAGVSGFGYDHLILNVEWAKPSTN
UniProt Q9H9T3: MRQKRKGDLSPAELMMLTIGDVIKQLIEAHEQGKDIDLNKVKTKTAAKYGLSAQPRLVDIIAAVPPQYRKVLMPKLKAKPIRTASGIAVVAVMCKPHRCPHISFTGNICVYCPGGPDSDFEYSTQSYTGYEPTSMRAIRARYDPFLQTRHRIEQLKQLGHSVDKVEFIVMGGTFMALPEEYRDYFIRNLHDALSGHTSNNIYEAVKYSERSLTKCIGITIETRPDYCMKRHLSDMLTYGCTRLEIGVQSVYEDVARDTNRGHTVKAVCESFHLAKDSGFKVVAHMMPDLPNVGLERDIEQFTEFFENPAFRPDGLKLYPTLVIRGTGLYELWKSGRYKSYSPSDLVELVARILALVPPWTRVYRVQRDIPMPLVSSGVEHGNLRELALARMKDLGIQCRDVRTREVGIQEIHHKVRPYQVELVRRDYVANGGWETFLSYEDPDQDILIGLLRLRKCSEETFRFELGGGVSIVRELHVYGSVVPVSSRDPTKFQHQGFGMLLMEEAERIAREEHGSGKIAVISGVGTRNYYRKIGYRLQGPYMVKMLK
UniProt Q8NFI3: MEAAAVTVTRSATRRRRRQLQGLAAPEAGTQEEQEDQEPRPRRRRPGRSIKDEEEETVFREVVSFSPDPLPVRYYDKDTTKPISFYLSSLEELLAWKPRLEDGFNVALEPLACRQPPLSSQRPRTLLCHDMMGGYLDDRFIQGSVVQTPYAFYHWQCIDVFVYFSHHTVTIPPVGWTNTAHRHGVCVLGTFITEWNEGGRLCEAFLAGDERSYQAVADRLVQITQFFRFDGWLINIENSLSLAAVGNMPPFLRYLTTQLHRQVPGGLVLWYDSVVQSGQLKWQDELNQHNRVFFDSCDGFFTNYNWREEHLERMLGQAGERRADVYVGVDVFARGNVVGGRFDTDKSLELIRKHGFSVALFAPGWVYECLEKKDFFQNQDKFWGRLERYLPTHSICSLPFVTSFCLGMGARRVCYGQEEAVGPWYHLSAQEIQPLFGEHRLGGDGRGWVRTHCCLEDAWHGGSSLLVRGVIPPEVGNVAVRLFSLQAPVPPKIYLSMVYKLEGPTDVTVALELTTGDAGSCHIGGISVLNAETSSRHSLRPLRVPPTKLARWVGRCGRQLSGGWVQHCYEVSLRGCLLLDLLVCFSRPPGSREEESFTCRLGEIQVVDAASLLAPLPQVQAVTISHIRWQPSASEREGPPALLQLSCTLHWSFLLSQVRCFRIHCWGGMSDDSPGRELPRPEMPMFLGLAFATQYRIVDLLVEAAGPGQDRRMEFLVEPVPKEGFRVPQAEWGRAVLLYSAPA
UniProt Q5UCC4: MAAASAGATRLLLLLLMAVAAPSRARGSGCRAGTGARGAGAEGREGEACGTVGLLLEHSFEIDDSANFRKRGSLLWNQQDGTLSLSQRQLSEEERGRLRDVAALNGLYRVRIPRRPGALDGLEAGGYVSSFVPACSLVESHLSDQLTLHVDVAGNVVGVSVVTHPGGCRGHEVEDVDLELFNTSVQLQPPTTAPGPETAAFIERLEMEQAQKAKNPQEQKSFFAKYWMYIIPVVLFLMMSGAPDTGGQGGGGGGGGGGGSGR
UniProt O60841: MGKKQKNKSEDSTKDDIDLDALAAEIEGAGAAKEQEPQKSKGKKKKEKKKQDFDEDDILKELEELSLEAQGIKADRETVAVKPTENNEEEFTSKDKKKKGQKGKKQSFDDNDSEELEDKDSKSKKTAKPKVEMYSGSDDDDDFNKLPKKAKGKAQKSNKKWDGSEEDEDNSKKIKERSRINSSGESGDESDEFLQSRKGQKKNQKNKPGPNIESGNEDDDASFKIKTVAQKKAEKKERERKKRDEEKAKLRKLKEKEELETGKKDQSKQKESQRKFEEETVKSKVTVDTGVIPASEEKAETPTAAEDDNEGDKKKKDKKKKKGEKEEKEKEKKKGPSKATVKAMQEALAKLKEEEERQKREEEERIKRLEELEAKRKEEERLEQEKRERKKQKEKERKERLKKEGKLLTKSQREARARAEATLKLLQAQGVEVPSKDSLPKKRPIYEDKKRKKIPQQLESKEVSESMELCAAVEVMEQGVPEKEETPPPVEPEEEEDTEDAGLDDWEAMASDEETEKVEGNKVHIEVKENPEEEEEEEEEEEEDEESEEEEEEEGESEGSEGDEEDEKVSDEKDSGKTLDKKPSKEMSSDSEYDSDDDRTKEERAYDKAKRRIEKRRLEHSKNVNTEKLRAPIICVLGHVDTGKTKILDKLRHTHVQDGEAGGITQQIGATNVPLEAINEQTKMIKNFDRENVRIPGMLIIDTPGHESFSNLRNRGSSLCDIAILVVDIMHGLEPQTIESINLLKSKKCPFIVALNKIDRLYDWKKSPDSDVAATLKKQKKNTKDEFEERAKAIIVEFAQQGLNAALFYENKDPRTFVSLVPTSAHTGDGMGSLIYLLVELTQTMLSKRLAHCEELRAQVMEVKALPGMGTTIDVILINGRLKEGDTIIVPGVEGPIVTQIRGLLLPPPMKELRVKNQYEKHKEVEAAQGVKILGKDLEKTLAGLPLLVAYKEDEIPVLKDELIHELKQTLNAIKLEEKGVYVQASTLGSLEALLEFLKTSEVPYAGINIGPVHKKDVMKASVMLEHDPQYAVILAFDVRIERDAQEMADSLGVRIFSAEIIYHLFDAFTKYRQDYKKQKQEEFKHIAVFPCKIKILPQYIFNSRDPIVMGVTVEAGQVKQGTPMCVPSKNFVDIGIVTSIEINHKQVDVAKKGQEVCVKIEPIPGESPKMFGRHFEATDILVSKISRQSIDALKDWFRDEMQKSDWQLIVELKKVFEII
UniProt O14638, whole entry, looked up: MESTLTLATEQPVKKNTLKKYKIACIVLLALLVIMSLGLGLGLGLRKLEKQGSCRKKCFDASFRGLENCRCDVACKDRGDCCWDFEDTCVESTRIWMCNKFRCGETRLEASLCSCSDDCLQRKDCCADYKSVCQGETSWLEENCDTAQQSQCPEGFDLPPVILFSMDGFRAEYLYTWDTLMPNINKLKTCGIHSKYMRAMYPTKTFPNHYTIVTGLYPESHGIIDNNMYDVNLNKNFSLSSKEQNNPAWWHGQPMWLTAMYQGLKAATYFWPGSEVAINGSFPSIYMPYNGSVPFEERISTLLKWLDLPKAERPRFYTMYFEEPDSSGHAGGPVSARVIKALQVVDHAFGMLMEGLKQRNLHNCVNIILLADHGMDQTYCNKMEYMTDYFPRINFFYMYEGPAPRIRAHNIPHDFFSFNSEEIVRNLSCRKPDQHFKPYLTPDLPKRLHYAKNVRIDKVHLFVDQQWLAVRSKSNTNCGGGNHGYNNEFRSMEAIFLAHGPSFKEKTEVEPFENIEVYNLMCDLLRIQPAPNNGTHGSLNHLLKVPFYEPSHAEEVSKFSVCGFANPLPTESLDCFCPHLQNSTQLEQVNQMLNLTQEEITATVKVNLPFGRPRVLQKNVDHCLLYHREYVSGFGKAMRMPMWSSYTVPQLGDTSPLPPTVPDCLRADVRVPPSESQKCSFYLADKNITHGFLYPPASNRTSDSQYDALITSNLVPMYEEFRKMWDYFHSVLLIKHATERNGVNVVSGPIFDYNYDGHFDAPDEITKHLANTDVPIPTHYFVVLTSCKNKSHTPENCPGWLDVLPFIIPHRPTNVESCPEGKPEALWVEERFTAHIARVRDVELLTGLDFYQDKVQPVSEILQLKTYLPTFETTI

Assays:
Test in all cases: log2 fold change, soluble protein after heating vs DMSO (PISA); higher = thermal stabilisation; K562 lysate, 10 uM; active = over 0.2 and 3.5 SD of the protein, either way, in both replicates (recomputed)
erlotinib = compound: C#Cc1cccc(Nc2ncnc3cc(OCCOC)c(OCCOC)cc23)c1 [erlotinib]
Outline: (§1)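 Soluble protein was defined as the supernatant remaining after 21,000xg for 90 min, following pooling of heated aliquots and adjustment to 0.5% NP-40 at 4°C. Before that, crude K562 extract at 1 mg/mL protein in PBS pH 7.4 with 1 mM MgCl2 was treated with 10 μM compound for 30 min and heated for 3 min across 48°C-58°C. Quantification used TMTpro 16plex LC-MS/MS with channel sums equalised, and values are log-two fold changes in thermal stability relative to solvent controls from duplicates.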

[1] = compound: C/C(=N\NC(=O)C1=CC(=CC=C1)S(=O)(=O)N2CCOCC2)/C3=C(C=CC(=C3)Cl)O
Outline: as §1

[2] = compound: C1=CC(=CC=C1C2=NC3=C(N2)C=C(C=C3)C(=O)N)OC4=CC=C(C=C4)Cl
Outline: as §1

[3] = compound: C1=CC2=C(C=CC(=C2)/C=C\3/C(=O)NC(=NCC4=CC=CS4)S3)N=C1
Outline: as §1

[4] = compound: C1=CC2=NC=CN=C2C=C1/C=C/3\C(=O)NC(=O)S3
Outline: as §1

[5] = compound: C1=CC=C(C=C1)C2=NC(=C(N2)C3=CC=NC=C3)C4=CC(=C(C=C4)Cl)O
Outline: as §1

[6] = compound: C1=CC=C2C(=C1)C3=NNC4=CC=CC(=C43)C2=O
Outline: as §1

[7] = compound: C1CCN(C1)C(=O)NC2=CC=CC(=C2)NC3=NC=C(C(=N3)NCCC4=CN=CN4)Br
Outline: as §1

[8] = compound: C1CN(CCC1(CC2=CC=C(C=C2)Cl)N)C3=NC=NC4=C3C=CN4
Outline: as §1

IRAK-1-4 Inhibitor I = compound: C1COCCN1CCN2C3=CC=CC=C3N=C2NC(=O)C4=CC(=CC=C4)[N+](=O)[O-] [IRAK-1-4 Inhibitor I]
Outline: as §1

ibrutinib = compound: C=CC(=O)N1CCC[C@@H](n2nc(-c3ccc(Oc4ccccc4)cc3)c3c(N)ncnc32)C1 [ibrutinib]
Outline: as §1

[9] = compound: CC(=O)c1cnc2ccc(-c3cc(Cl)c(O)c(Cl)c3)nc2c1N[C@H]1CC[C@H](CN(C)C)CC1
Outline: as §1

ralimetinib = compound: CC(C)(C)Cn1c(N)nc2ccc(-c3[nH]c(C(C)(C)C)nc3-c3ccc(F)cc3)nc21 [ralimetinib]
Outline: as §1

[10] = compound: CC(C)(O)CC(=O)NCCn1ccc2ncnc(Nc3ccc(Oc4cccc(C(F)(F)F)c4)c(Cl)c3)c21
Outline: as §1

[11] = compound: CC(C)C1=C2N=C(C=C(N2N=C1)NCC3=CC=CC=C3)NCCCCCCN
Outline: as §1

[12] = compound: CC1=C(C(CC(=O)N1)C2=CC=C(C=C2)C(F)(F)F)C(=O)NC3=C(C=C4C(=C3)C=NN4)F
Outline: as §1

[13] = compound: CC1=C(C2=C(C=C1)C(=O)C3=CC=CC=C3N2CCCN)C
Outline: as §1

[14] = compound: CC1=C(C=C(C=C1)NC(=O)C2=CC(=CC=C2)C(C)(C)C#N)NC3=CC4=C(C=C3)N=CN(C4=O)C
Outline: as §1

[15] = compound: CC1=C(C=C(C=C1)NC(=O)C2=CC(=CC=C2)N(C)C)NC(=O)C3=CC=C(C=C3)O
Outline: as §1

[16] = compound: CC1=CC=C(C=C1)SC2=C3C=C(SC3=CN=C2)C(=O)N
Outline: as §1

Measured: log2 fold change

EIF3L (UniProt Q9Y262)
inactive: erlotinib -0.01 | [1] 0.055 | [2] -0.01 | [3] -0.019 | [4] 0.003 | [5] -0.007 | [6] -0.001 | [7] -0.022 | [8] 0.003 | IRAK-1-4 Inhibitor I 0.005 | ibrutinib -0.031 | [9] -0.015 | ralimetinib 0.015 | [10] 0.01 | [11] -0.016 | [12] -0.039 | [13] 0.007 | [14] 0 | [15] 0.009 | [16] -0.006

ENDOD1 (UniProt O94919)
inactive: erlotinib 0.013 | [1] -0.017 | [2] 0.036 | [3] 0.019 | [4] -0.012 | [5] 0 | [6] -0.041 | [7] 0.009 | [8] 0.02 | IRAK-1-4 Inhibitor I 0.058 | ibrutinib 0.001 | [9] 0.002 | ralimetinib -0.015 | [10] -0.009 | [11] -0.002 | [12] -0.015 | [13] -0.073 | [14] -0.022 | [15] -0.006 | [16] -0.043

ELF2 (UniProt Q15723)
inactive: erlotinib 0.023 | [1] -0.136 | [2] 0.059 | [3] -0.068 | [4] 0.07 | [5] -0.036 | [6] -0.056 | [7] 0.009 | [8] -0.022 | IRAK-1-4 Inhibitor I -0.01 | ibrutinib 0.07 | [9] 0.116 | ralimetinib 0.013 | [10] -0.038 | [11] 0.006 | [12] -0.017 | [13] -0.066 | [14] 0.035 | [15] 0.022 | [16] -0.028

EIF3E (UniProt P60228)
inactive: erlotinib -0.018 | [1] 0.122 | [2] -0.065 | [3] 0.009 | [4] 0.039 | [5] -0.019 | [6] -0.057 | [7] 0 | [8] 0.022 | IRAK-1-4 Inhibitor I -0.031 | ibrutinib 0.039 | [9] 0.022 | ralimetinib 0.034 | [10] 0.021 | [11] -0.022 | [12] -0.005 | [13] 0.019 | [14] -0.028 | [15] 0.03 | [16] 0.028

EIF3H (UniProt O15372)
inactive: erlotinib -0.014 | [1] -0.065 | [2] 0.028 | [3] 0.007 | [4] -0.004 | [5] 0.004 | [6] -0.009 | [7] 0.015 | [8] 0.004 | IRAK-1-4 Inhibitor I 0.004 | ibrutinib -0.012 | [9] 0 | ralimetinib -0.02 | [10] -0.002 | [11] -0.022 | [12] 0.006 | [13] -0.006 | [14] 0.007 | [15] 0.007 | [16] -0.019

ERH (UniProt P84090)
inactive: erlotinib 0.016 | [1] 0.171 | [2] -0.011 | [3] 0.075 | [4] -0.049 | [5] 0.016 | [6] 0.052 | [7] 0.044 | [8] 0.04 | IRAK-1-4 Inhibitor I -0.047 | ibrutinib 0.033 | [9] -0.024 | ralimetinib -0.023 | [10] -0.127 | [11] 0.007 | [12] 0.039 | [13] 0.033 | [14] 0.017 | [15] 0.01 | [16] 0.007

EIF4G2 (UniProt P78344)
inactive: erlotinib 0.018 | [1] 0.046 | [2] -0.002 | [3] 0.022 | [4] 0.019 | [5] -0.047 | [6] 0.025 | [7] -0.025 | [8] -0.012 | IRAK-1-4 Inhibitor I 0.011 | ibrutinib 0.005 | [9] 0.04 | ralimetinib -0.003 | [10] -0.011 | [11] -0.031 | [12] 0.018 | [13] 0.094 | [14] -0.004 | [15] 0.014 | [16] 0.006

EIF4H (UniProt Q15056)
inactive: erlotinib -0.014 | [1] 0.055 | [2] 0.025 | [3] 0.006 | [4] 0.007 | [5] -0.015 | [6] 0.032 | [7] 0.004 | [8] 0.001 | IRAK-1-4 Inhibitor I 0.014 | ibrutinib -0.029 | [9] -0.007 | ralimetinib -0.017 | [10] -0.022 | [11] 0 | [12] 0.007 | [13] 0.007 | [14] 0.003 | [15] -0.013 | [16] -0.042

EIF2B4 (UniProt Q9UI10)
inactive: erlotinib 0.066 | [1] -0.063 | [2] -0.027 | [3] -0.178 | [4] -0.02 | [5] -0.121 | [6] 0.105 | [7] -0.009 | [8] 0.07 | IRAK-1-4 Inhibitor I 0.118 | ibrutinib -0.01 | [9] 0.05 | ralimetinib -0.033 | [10] -0.062 | [11] 0.013 | [12] 0.009 | [13] -0.109 | [14] -0.044 | [15] 0.005 | [16] -0.038

EIF3G (UniProt O75821)
inactive: erlotinib 0.029 | [1] -0.059 | [2] 0.027 | [3] 0.001 | [4] -0.011 | [5] -0.001 | [6] -0.018 | [7] 0.012 | [8] 0.009 | IRAK-1-4 Inhibitor I -0.002 | ibrutinib -0.054 | [9] 0.003 | ralimetinib 0.009 | [10] 0.002 | [11] 0.01 | [12] -0.023 | [13] -0.001 | [14] 0.007 | [15] 0.02 | [16] -0.018

EIF4G3, A0A0U1RQK7
inactive: erlotinib 0.021 | [1] -0.055 | [2] 0.004 | [3] 0.035 | [4] -0.019 | [5] -0.005 | [6] -0.036 | [7] 0.002 | [8] -0.002 | IRAK-1-4 Inhibitor I 0.022 | ibrutinib -0.007 | [9] -0.002 | ralimetinib -0.017 | [10] -0.003 | [11] 0.007 | [12] -0.012 | [13] 0.021 | [14] -0.011 | [15] -0.004 | [16] -0.006

ELP3 (UniProt Q9H9T3)
inactive: erlotinib -0.002 | [1] -0.012 | [2] 0.003 | [3] 0.009 | [4] -0.012 | [5] 0.003 | [6] 0.008 | [7] -0.002 | [8] 0.002 | IRAK-1-4 Inhibitor I 0.002 | ibrutinib -0.01 | [9] -0.01 | ralimetinib 0.004 | [10] -0.018 | [11] 0.005 | [12] 0.007 | [13] -0.011 | [14] -0.003 | [15] -0.003 | [16] -0.002

ENGASE (UniProt Q8NFI3)
inactive: erlotinib 0.036 | [1] 0 | [2] 0.043 | [3] -0.069 | [4] 0.008 | [5] 0.002 | [6] -0.04 | [7] 0.009 | [8] 0.043 | IRAK-1-4 Inhibitor I 0.007 | ibrutinib 0.019 | [9] 0.019 | ralimetinib -0.02 | [10] 0.012 | [11] -0.02 | [12] -0.002 | [13] 0.012 | [14] -0.046 | [15] 0.067 | [16] 0

EMC10 (UniProt Q5UCC4)
inactive: erlotinib 0.036 | [1] -0.05 | [2] 0.015 | [3] 0.051 | [4] -0.034 | [5] -0.005 | [6] -0.072 | [7] 0.022 | [8] 0.002 | IRAK-1-4 Inhibitor I 0.052 | ibrutinib -0.05 | [9] -0.022 | ralimetinib -0.032 | [10] -0.027 | [11] -0.061 | [12] 0 | [13] 0.022 | [14] 0.076 | [15] -0.037 | [16] -0.025

EIF5B (UniProt O60841)
inactive: erlotinib 0.001 | [1] 0.013 | [2] 0.006 | [3] 0.009 | [4] -0.05 | [5] 0.016 | [6] -0.017 | [7] -0.012 | [8] -0.004 | IRAK-1-4 Inhibitor I -0.002 | ibrutinib -0.039 | [9] -0.016 | ralimetinib -0.011 | [10] -0.03 | [11] 0.017 | [12] -0.026 | [13] -0.044 | [14] 0.002 | [15] 0.01 | [16] -0.001

ENPP3 (UniProt O14638)
inactive: erlotinib -0.046 | [1] -0.045 | [2] 0.027 | [3] -0.008 | [4] -0.005 | [5] 0.012 | [6] 0.006 | [7] 0.002 | [8] 0.023 | IRAK-1-4 Inhibitor I -0.013 | ibrutinib -0.003 | [9] -0.004 | ralimetinib 0.035 | [10] -0.02 | [11] 0.035 | [12] 0.076 | [13] -0.047 | [14] 0.003 | [15] 0.017 | [16] -0.024
